US20250290928A1, “METHOD, KIT AND DEVICE FOR DETECTING EXTRACELLULAR VESICLES” (priority 2022, published 2025)

Tested on: MMP in the MDA-MB-231-derived extracellular vesicles
Experiment: Digital detection of MDA-MB-231-derived extracellular vesicles through MMP activity in wells (SB substrates)
Format: biochemical, Human
Settings: 24 hr; for Double-positive ratio 1 Average / Double-positive ratio 2 Average / Double-positive ratio 3 Average / SB Expected value λ Average: MP with #2T, average of the results under the three conditions; for Double-positive ratio 1 (double-positives with respect to all the positives) / Double-positive ratio 2 (double-positives with respect to the positives for any one of SB2, SB6, SB7, SB9, and SB10) / Double-positive ratio 3 (double-positives with respect to the positives for Custom #2T) / Expected value λ / Number of positives / Positive ratio / Expected value λ (×1): MP; for Expected value λ (×1): at x1
Procedure: The concentration of the solution is 10 μg/mL. […] The solution was further diluted 2-fold to prepare a standard sample at a concentration of x1/4, further diluted 3-fold to prepare a standard sample at a concentration of x1/12, and further diluted 3-fold to prepare a standard sample at a concentration of x1/36. Thus, the standard samples with four concentrations were prepared.
In addition, 1 mM Alexa Fluor 647 was used as a standard fluorescent substance, and each of the MMP14 detection solutions contained the standard fluorescent substance at a final concentration of 2 μM.
50 μL of each of the MMP detection solutions was added to 50 μL of each of the samples, a reaction was performed at 30° C., and MMP activity was evaluated.

Substance: QXL520-Pro-Leu-Gly-Met-Trp-Ser-Arg-Lys(5-FAM)-NH2 (PLGMWSRK; QXL520, 5-FAM, C-terminal amide; printed: Pro-Leu-Gly-Met-Trp-Ser-Arg-Lys) [SB6]
- Double-positive ratio 1 Average: 0.1321
- Double-positive ratio 2 Average: 0.1542
- Double-positive ratio 3 Average: 0.4855
- SB Expected value λ Average: 0.7282
- Double-positive ratio 1 (double-positives with respect to all the positives) (1.25 μM with 1.25 μM #2T): 0.1612
- Double-positive ratio 2 (double-positives with respect to the positives for any one of SB2, SB6, SB7, SB9, and SB10) (1.25 μM with 1.25 μM #2T): 0.1955
- Double-positive ratio 3 (double-positives with respect to the positives for Custom #2T) (1.25 μM with 1.25 μM #2T): 0.4785
- Expected value λ (1.25 μM with 1.25 μM #2T): 0.5463
- Number of positives (1.25 μM with 1.25 μM #2T): 11,927
- Positive ratio (1.25 μM with 1.25 μM #2T): 0.4209
- Expected value λ (×1) (1.25 μM with 1.25 μM #2T): 1.639
- Double-positive ratio 1 (double-positives with respect to all the positives) (2.5 μM with 2.5 μM #2T): 0.09501
- Double-positive ratio 2 (double-positives with respect to the positives for any one of SB2, SB6, SB7, SB9, and SB10) (2.5 μM with 2.5 μM #2T): 0.1117
- Double-positive ratio 3 (double-positives with respect to the positives for Custom #2T) (2.5 μM with 2.5 μM #2T): 0.3889
- Expected value λ (2.5 μM with 2.5 μM #2T): 0.9683
- Number of positives (2.5 μM with 2.5 μM #2T): 17,610
- Positive ratio (2.5 μM with 2.5 μM #2T): 0.6203
- Expected value λ (×1) (2.5 μM with 2.5 μM #2T): 2.905
- Double-positive ratio 1 (double-positives with respect to all the positives) (5 μM with 5 μM #2T): 0.1403
- Double-positive ratio 2 (double-positives with respect to the positives for any one of SB2, SB6, SB7, SB9, and SB10) (5 μM with 5 μM #2T): 0.1555
- Double-positive ratio 3 (double-positives with respect to the positives for Custom #2T) (5 μM with 5 μM #2T): 0.5892
- Expected value λ (5 μM with 5 μM #2T): 0.6698
- Number of positives (5 μM with 5 μM #2T): 13,872
- Positive ratio (5 μM with 5 μM #2T): 0.4882
- Expected value λ (×1) (5 μM with 5 μM #2T): 2.01

Substance: QXL520-Pro-Tyr-Ala-Tyr-Trp-Met-Arg-Lys(5-FAM)-NH2 (PYAYWMRK; QXL520, 5-FAM, C-terminal amide; printed: Pro-Tyr-Ala-Tyr-Trp-Met-Arg-Lys) [SB7]
- Double-positive ratio 1 Average: 0.1276
- Double-positive ratio 2 Average: 0.1387
- Double-positive ratio 3 Average: 0.641
- SB Expected value λ Average: 1.083
- Double-positive ratio 1 (double-positives with respect to all the positives) (1.25 μM with 1.25 μM #2T): 0.1442
- Double-positive ratio 2 (double-positives with respect to the positives for any one of SB2, SB6, SB7, SB9, and SB10) (1.25 μM with 1.25 μM #2T): 0.1636
- Double-positive ratio 3 (double-positives with respect to the positives for Custom #2T) (1.25 μM with 1.25 μM #2T): 0.5493
- Expected value λ (1.25 μM with 1.25 μM #2T): 0.6272
- Number of positives (1.25 μM with 1.25 μM #2T): 13,220
- Positive ratio (1.25 μM with 1.25 μM #2T): 0.4659
- Expected value λ (×1) (1.25 μM with 1.25 μM #2T): 1.882
- Double-positive ratio 1 (double-positives with respect to all the positives) (2.5 μM with 2.5 μM #2T): 0.1093
- Double-positive ratio 2 (double-positives with respect to the positives for any one of SB2, SB6, SB7, SB9, and SB10) (2.5 μM with 2.5 μM #2T): 0.1185
- Double-positive ratio 3 (double-positives with respect to the positives for Custom #2T) (2.5 μM with 2.5 μM #2T): 0.5833
- Expected value λ (2.5 μM with 2.5 μM #2T): 1.414
- Number of positives (2.5 μM with 2.5 μM #2T): 21,473
- Positive ratio (2.5 μM with 2.5 μM #2T): 0.7568
- Expected value λ (×1) (2.5 μM with 2.5 μM #2T): 4.242
- Double-positive ratio 1 (double-positives with respect to all the positives) (5 μM with 5 μM #2T): 0.1293
- Double-positive ratio 2 (double-positives with respect to the positives for any one of SB2, SB6, SB7, SB9, and SB10) (5 μM with 5 μM #2T): 0.1339
- Double-positive ratio 3 (double-positives with respect to the positives for Custom #2T) (5 μM with 5 μM #2T): 0.7905
- Expected value λ (5 μM with 5 μM #2T): 1.2081
- Number of positives (5 μM with 5 μM #2T): 19,812
- Positive ratio (5 μM with 5 μM #2T): 0.7012
- Expected value λ (×1) (5 μM with 5 μM #2T): 3.6243

Substance: TAMRA-GGPLGLAGGK(TQ3) (TAMRA, TQ3 quencher) [Custom #2T]
- Expected value λ (1.25 μM #2T with 1.25 μM SB2): 0.1924
- Number of positives (1.25 μM #2T with 1.25 μM SB2): 4,970
- Positive ratio (1.25 μM #2T with 1.25 μM SB2): 0.175
- Expected value λ (1.25 μM #2T with 1.25 μM SB6): 0.1888
- Number of positives (1.25 μM #2T with 1.25 μM SB6): 4,874
- Positive ratio (1.25 μM #2T with 1.25 μM SB6): 0.172
- Expected value λ (1.25 μM #2T with 1.25 μM SB7): 0.1494
- Number of positives (1.25 μM #2T with 1.25 μM SB7): 3,938
- Positive ratio (1.25 μM #2T with 1.25 μM SB7): 0.1388
- Expected value λ (1.25 μM #2T with 1.25 μM SB9): 0.1813
- Number of positives (1.25 μM #2T with 1.25 μM SB9): 4,693
- Positive ratio (1.25 μM #2T with 1.25 μM SB9): 0.1658
- Expected value λ (1.25 μM #2T with 1.25 μM SB10): 0.2246
- Number of positives (1.25 μM #2T with 1.25 μM SB10): 5,696
- Positive ratio (1.25 μM #2T with 1.25 μM SB10): 0.2012
- Expected value λ (2.5 μM #2T with 2.5 μM SB2): 0.1783
- Number of positives (2.5 μM #2T with 2.5 μM SB2): 4,617
- Positive ratio (2.5 μM #2T with 2.5 μM SB2): 0.1633
- Expected value λ (2.5 μM #2T with 2.5 μM SB6): 0.1962
- Number of positives (2.5 μM #2T with 2.5 μM SB6): 5,057
- Positive ratio (2.5 μM #2T with 2.5 μM SB6): 0.1781
- Expected value λ (2.5 μM #2T with 2.5 μM SB7): 0.167
- Number of positives (2.5 μM #2T with 2.5 μM SB7): 4,363
- Positive ratio (2.5 μM #2T with 2.5 μM SB7): 0.1538
- Expected value λ (2.5 μM #2T with 2.5 μM SB9): 0.2269
- Number of positives (2.5 μM #2T with 2.5 μM SB9): 5,748
- Positive ratio (2.5 μM #2T with 2.5 μM SB9): 0.203
- Expected value λ (2.5 μM #2T with 2.5 μM SB10): 0.2226
- Number of positives (2.5 μM #2T with 2.5 μM SB10): 5,655
- Positive ratio (2.5 μM #2T with 2.5 μM SB10): 0.1996
- Expected value λ (5 μM #2T with 5 μM SB2): 0.1563
- Number of positives (5 μM #2T with 5 μM SB2): 4,098
- Positive ratio (5 μM #2T with 5 μM SB2): 0.1447
- Expected value λ (5 μM #2T with 5 μM SB6): 0.1379
- Number of positives (5 μM #2T with 5 μM SB6): 3,661
- Positive ratio (5 μM #2T with 5 μM SB6): 0.1288
- Expected value λ (5 μM #2T with 5 μM SB7): 0.1265
- Number of positives (5 μM #2T with 5 μM SB7): 3,356
- Positive ratio (5 μM #2T with 5 μM SB7): 0.1188
- Expected value λ (5 μM #2T with 5 μM SB9): 0.1925
- Number of positives (5 μM #2T with 5 μM SB9): 4,962
- Positive ratio (5 μM #2T with 5 μM SB9): 0.1752
- Expected value λ (5 μM #2T with 5 μM SB10): 0.1192
- Number of positives (5 μM #2T with 5 μM SB10): 3,671
- Positive ratio (5 μM #2T with 5 μM SB10): 0.1124
